Values quoted from earlier work in patent US20110257236A1, “SOLID SOLUTION OF VALINE, ISOLEUCINE, LEUCINE AND ITS MANUFACTURING METHOD” (AJINOMOTO CO., INC., priority 2008, published 2011).

Conditions: taste (bitter taste); cited from earlier work

SMILES	stimulus threshold [mg/dL]
CC[C@H](C)[C@H](N)C(=O)O [Ile, L-isoleucine]	90
CC(C)[C@H](N)C(=O)O [Val, L-valine]	150
